In article PMC8993103 one finds binding data, which are given here for 1 substance.

Chains of the proteins cited; added tags and fusions are not shown. Residues count along the entry.
UniProt P05161, residues 1-157: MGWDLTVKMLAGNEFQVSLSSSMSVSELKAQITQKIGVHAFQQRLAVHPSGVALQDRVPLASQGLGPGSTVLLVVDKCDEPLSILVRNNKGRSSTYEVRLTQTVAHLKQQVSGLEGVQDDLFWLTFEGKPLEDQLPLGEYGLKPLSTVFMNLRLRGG
UniProt P63104: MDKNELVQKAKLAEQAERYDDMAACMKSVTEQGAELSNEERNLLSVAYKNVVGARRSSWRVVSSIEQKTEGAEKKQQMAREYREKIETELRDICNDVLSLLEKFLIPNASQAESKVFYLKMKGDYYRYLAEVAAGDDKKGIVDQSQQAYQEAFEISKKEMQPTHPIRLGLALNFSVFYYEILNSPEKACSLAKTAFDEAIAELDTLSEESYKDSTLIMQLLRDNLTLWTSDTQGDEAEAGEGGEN

Results are given in words; binding and its absence hold for the method and conditions named. Binding seen in cells or lysates may run through a third protein. A yes stands for co-enrichment or nearness to the bait. Other partners may have been found.

The test has as its target interferon-stimulated gene 15 (ISG15), HA-tagged (UniProt P05161). The experiment in a line: affinity purification with mass spectrometry; anti-HA immunoprecipitation (Protein A/G PLUS-Agarose) from RIPA lysates of 293T cells, 48 h after transfection with control, HA-ISG15, HA-14-3-3ζ or HA-ISG15 + HA-14-3-3ζ; SDS-PAGE, Coomassie; gel regions 20-37 kDa and 37-75 kDa excised, digested with trypsin, analysed by mass spectrometry.

Regarding “14-3-3ζ protein, HA-tagged (from UniProt P63104 1-245)”, the binding entry is recorded as “binds”.
